Assay results from PMC5603516.
No constants are given. Whether binding was seen depends on the method and setting. For part of these data: In cells and extracts the contact can be indirect. Some results given as binding are weak or reduced against the parent protein; the word gives no strength. Where a sequence is shown, tags or fusion partners need not be part of it. Values belong to the binder of their own block, whether it stands above or below them.

Tests used:
[1] = molecular target: T1, MANF with a C-terminal HA tag (MANF-HA), expressed in PC12 cells (mouse) (UniProt Q9CXI5); test: co-IP; PC12 cells transfected with MANF-HA and Myc-PIP4k2b; lysate in NP-40 buffer; precipitated with an HA antibody and protein A-agarose; western blotting
T1 sequence: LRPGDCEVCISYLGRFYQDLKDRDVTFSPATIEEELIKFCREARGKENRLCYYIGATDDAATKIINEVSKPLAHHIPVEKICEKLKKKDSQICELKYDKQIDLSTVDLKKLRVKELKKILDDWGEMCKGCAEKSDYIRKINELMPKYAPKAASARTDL

[2] = molecular target: T2, transgenic MANF with HA tag, expressed in the brain of MANF transgenic mice (mouse) (UniProt Q9CXI5); test: co-IP; brain lysate of MANF transgenic mice in NP-40 buffer; antibody and protein A-agarose; western blotting for endogenous PIP4k2b
T2 sequence: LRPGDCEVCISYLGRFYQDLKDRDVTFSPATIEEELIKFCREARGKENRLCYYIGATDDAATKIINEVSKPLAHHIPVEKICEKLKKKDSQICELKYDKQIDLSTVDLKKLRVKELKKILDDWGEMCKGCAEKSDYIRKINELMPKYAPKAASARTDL

[3] = molecular target: T3, GST tagged full length recombinant PIP4k2b (GST-PIP4k2b) (mouse) (UniProt Q80XI4); test: pull-down; in vitro binding: MANF-His mixed with GST-PIP4k2b (or fragment) on glutathione beads in 500 μl NP40 buffer, 4 °C overnight; washed three times; western blotting; both purified
T3 sequence: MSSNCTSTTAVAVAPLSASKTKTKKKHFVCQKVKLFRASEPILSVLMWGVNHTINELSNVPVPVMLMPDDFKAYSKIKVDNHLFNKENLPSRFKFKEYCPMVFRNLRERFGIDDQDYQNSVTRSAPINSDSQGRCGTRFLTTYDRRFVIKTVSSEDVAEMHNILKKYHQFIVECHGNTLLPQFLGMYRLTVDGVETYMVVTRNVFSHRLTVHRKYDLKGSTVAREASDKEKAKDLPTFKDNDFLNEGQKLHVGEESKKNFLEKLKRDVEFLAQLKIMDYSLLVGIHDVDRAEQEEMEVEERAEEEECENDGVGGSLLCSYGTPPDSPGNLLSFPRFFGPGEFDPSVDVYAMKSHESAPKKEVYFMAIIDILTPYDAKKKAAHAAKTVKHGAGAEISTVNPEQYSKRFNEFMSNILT

binding [1]: binds
B1: Myc tagged PIP4k2b (Myc-PIP4k2b) (enzyme, UniProt Q80XI4 1-416)
chain: MSSNCTSTTAVAVAPLSASKTKTKKKHFVCQKVKLFRASEPILSVLMWGVNHTINELSNVPVPVMLMPDDFKAYSKIKVDNHLFNKENLPSRFKFKEYCPMVFRNLRERFGIDDQDYQNSVTRSAPINSDSQGRCGTRFLTTYDRRFVIKTVSSEDVAEMHNILKKYHQFIVECHGNTLLPQFLGMYRLTVDGVETYMVVTRNVFSHRLTVHRKYDLKGSTVAREASDKEKAKDLPTFKDNDFLNEGQKLHVGEESKKNFLEKLKRDVEFLAQLKIMDYSLLVGIHDVDRAEQEEMEVEERAEEEECENDGVGGSLLCSYGTPPDSPGNLLSFPRFFGPGEFDPSVDVYAMKSHESAPKKEVYFMAIIDILTPYDAKKKAAHAAKTVKHGAGAEISTVNPEQYSKRFNEFMSNILT

binding [2]: binds
B2: phosphatidylinositol 5-phosphate 4-kinase type-2 beta (PIP4k2b), endogenous in mouse brain (enzyme, UniProt Q80XI4 1-416)
chain: MSSNCTSTTAVAVAPLSASKTKTKKKHFVCQKVKLFRASEPILSVLMWGVNHTINELSNVPVPVMLMPDDFKAYSKIKVDNHLFNKENLPSRFKFKEYCPMVFRNLRERFGIDDQDYQNSVTRSAPINSDSQGRCGTRFLTTYDRRFVIKTVSSEDVAEMHNILKKYHQFIVECHGNTLLPQFLGMYRLTVDGVETYMVVTRNVFSHRLTVHRKYDLKGSTVAREASDKEKAKDLPTFKDNDFLNEGQKLHVGEESKKNFLEKLKRDVEFLAQLKIMDYSLLVGIHDVDRAEQEEMEVEERAEEEECENDGVGGSLLCSYGTPPDSPGNLLSFPRFFGPGEFDPSVDVYAMKSHESAPKKEVYFMAIIDILTPYDAKKKAAHAAKTVKHGAGAEISTVNPEQYSKRFNEFMSNILT

binding [3]: binds
B3: mouse MANF with a C-terminal His tag (MANF-His) (protein, UniProt Q9CXI5 22-179)
chain: LRPGDCEVCISYLGRFYQDLKDRDVTFSPATIEEELIKFCREARGKENRLCYYIGATDDAATKIINEVSKPLAHHIPVEKICEKLKKKDSQICELKYDKQIDLSTVDLKKLRVKELKKILDDWGEMCKGCAEKSDYIRKINELMPKYAPKAASARTDL
